In publication PMC9929924, “Phosphorylation of the receptor protein Pex5p modulates import of proteins into peroxisomes” (Biological Chemistry, 2022) one finds binding data, which are given here for seven molecules.

For assay [1], the target named is T1, TPA-tagged Pex14p (Pex14p^TPA) (S. cerevisiae) (UniProt P53112).
T1 sequence: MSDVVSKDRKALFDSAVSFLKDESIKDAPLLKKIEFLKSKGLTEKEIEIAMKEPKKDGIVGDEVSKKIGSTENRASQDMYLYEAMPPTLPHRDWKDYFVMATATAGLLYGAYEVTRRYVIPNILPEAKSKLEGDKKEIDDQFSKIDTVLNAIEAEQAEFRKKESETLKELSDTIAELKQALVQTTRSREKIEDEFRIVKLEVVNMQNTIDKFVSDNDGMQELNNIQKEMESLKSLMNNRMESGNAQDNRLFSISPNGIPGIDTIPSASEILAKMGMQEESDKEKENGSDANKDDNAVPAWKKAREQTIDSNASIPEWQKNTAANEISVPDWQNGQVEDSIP
Kind of assay: co-IP; reverse purification: TPA-tagged Pex14p as bait on IgG Sepharose from crude membrane fractions solubilized with 1% digitonin, eluted with TEV protease; immunoblot. For orientation: A western blot detects proteins with antibodies after separation by electrophoresis.

Assay [2] addresses T2, Pcs60p nonapeptide, FITC-… (S. cerevisiae).
T2 sequence (peptide, FITC on the N-terminus): YKSSRNKSKL
The assay is described as follows: fluorescence polarisation; fluorescence anisotropy; 10 nM FITC-labelled peptide, serial dilutions of Pex5p variant 1.5 nM to 6.6 µM; 50 mM HEPES pH 7.5, 150 mM NaCl; one-site binding-saturation fit; both purified.

Assay [3] addresses T3, TPA-tagged Pex5p-S507/523A (Pex5p^2A) (S. cerevisiae) (UniProt P35056).
T3 sequence: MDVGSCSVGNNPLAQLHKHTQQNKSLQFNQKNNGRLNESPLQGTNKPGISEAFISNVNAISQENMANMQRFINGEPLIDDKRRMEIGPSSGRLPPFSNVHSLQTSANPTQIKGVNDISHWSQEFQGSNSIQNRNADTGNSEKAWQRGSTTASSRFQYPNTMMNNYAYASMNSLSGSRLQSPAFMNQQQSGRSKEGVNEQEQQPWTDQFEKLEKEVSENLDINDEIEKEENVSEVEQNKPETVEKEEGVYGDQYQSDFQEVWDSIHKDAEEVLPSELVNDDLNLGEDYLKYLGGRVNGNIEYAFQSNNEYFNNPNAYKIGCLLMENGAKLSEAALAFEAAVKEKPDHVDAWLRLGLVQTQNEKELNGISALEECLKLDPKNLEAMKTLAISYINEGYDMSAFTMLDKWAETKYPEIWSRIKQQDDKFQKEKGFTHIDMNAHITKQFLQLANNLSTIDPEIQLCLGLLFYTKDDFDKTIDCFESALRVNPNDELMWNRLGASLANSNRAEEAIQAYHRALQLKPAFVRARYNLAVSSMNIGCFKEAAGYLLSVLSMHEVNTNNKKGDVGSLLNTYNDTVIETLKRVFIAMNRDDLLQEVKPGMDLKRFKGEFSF
Kind of assay: co-IP; TPA-tagged Pex5p variants purified on IgG Sepharose from crude membrane fractions solubilized with 1% digitonin, eluted with TEV protease; immunoblot for Pex5p, Pex14p, Pex17p, Pex13p.

In assay [4] the target is T4, TPA-tagged Pex5p wildtype (Pex5p^TPA) (S. cerevisiae) (UniProt P35056).
T4 sequence: T3 sequence with A507S, A523S
The description is as above.

In assay [5] the target is T5, TPA-tagged Pex5p-S507/523D (Pex5p^2D) (S. cerevisiae) (UniProt P35056).
T5 sequence: T3 sequence with A507D, A523D
Described as above.

Substitutions are numbered along the chain they refer to. Names and notes keep the numbering of the source. These are yes or no findings as the source states them, for the method shown. For some of these results: Binding seen in cells or lysates may run through a third protein. Some results given as binding are weak or reduced against the parent protein; the word gives no strength. Tags and fused reporters may be left off the sequences shown.

B1: Pex5p wildtype, recombinant His6-tagged (HisPex5p) (natural protein, S. cerevisiae, UniProt P35056 1-612, looked up)
chain: T3 sequence with A507S, A523S
notes: Pex5p, PTS1 receptor of Saccharomyces cerevisiae, UniProtKB P35056, full length; No cleavage of the His tag is described; the native MS mass of the monomer is printed as 71.459 kDa; also called Pex5p^WT; source: E. coli BL21 RIL (DE3), purified (Ni-NTA, MonoQ anion exchange, SEC)
For the molecule B1, the binding entry in assay [1] is reported as “binds”.

B2: Pex5p-S507/523D in cells expressing TPA-tagged Pex14p (protein, UniProt P35056 1-612)
chain: T3 sequence with A507D, A523D
In the case of B2, the binding entry in assay [1] is reported as “binds”.

B3: Pex5p-S507/523A in cells expressing TPA-tagged Pex14p (protein, UniProt P35056 1-612)
chain: T3 sequence
For B3, the binding entry in assay [1] was “binds”.

B4: Pex5p-S507/523D, recombinant His6-tagged phospho-mimicking mutant (natural protein, S. cerevisiae, UniProt P35056 1-612, looked up)
chain: T3 sequence with A507D, A523D
notes: Pex5p, PTS1 receptor of Saccharomyces cerevisiae, UniProtKB P35056, full length, with S507D and S523D; No cleavage of the His tag is described; the native MS mass of the monomer is printed as 71.515 kDa; also called Pex5p^2D; Pex5p-S507D/523D; source: E. coli BL21 RIL (DE3), purified (Ni-NTA, MonoQ anion exchange, SEC)
Take B4: in assay [2], the binding entry is given as “binds weakly”.

B5: Pex17p (protein, UniProt P40155 1-199)
chain: MTSINSFPRNIDWPSNIGIKKIEGTNPTVNAIKGLLYNGGSIYAFLYFVIAMFVEPTLQKQYQQRNDFSLFVLLRLRRIIAQLQKRLVMTPVSSLGFNEQNNFVERSTQTSDDNIIREDNSHWAEMIYQLQNMKQELQYFNRSSGQPSESIDDFVFQIKMVTDQVELTDRSRAFSNKSRNIIQGIREIKGWFVNGQVPR
As for B5, the binding result in assay [3], in assay [4] and in assay [5] was “binds” throughout.

B6: Pex14p (protein, UniProt P53112 1-341)
chain: T1 sequence
Turning to B6, the binding result in assay [3], in assay [4] and in assay [5] was “binds” throughout.

B7: Pex13p (protein, UniProt P80667 1-386)
chain: MSSTAVPRPKPWETSASLEEPQRNAQSLSAMMTSNQQDSRPTEESNNSNSASESAPEVLPRPAALNSSGTYGESNTIPGIYGNSNYGIPYDNNPYSMNSIYGNSIGRYGYGGSYYGNNYGSFYGGGYGAGAGYGMNNGSGLGESTKATFQLIESLIGAVTGFAQMLESTYMATHNSFFTMISVAEQFGNLKEMLGSFFGIFAIMKFLKKILYRATKGRLGIPPKNFAESEGSKNKLIEDFQKFNDSGTINSNEKATRRKISWKPLLFFLMAVFGFPYLLNKFITKLQTSGTIRASQGNGSEPIDPSKLEFARALYDFVPENPEMEVALKKGDLMAILSKKDPLGRDSDWWKVRTKNGNIGYIPYNYIEIIKRRKKIEHVDDETRTH
With B7, the binding result in assay [3], in assay [4] and in assay [5] was “binds” in each case.
